No constants are given. Whether binding was seen depends on the method and setting. Some entries that bind do so weakly or less than the wild type.
Target: T1, human serum albumin (HSA) (human, UniProt P02768 25-609)
T1 construct: also called full HSA protein
Test: Biacore SPR

By UniProt entry, the sequences of proteins in these tests, tags left out. Residues count along the entry.
UniProt P02768, residues 25-609: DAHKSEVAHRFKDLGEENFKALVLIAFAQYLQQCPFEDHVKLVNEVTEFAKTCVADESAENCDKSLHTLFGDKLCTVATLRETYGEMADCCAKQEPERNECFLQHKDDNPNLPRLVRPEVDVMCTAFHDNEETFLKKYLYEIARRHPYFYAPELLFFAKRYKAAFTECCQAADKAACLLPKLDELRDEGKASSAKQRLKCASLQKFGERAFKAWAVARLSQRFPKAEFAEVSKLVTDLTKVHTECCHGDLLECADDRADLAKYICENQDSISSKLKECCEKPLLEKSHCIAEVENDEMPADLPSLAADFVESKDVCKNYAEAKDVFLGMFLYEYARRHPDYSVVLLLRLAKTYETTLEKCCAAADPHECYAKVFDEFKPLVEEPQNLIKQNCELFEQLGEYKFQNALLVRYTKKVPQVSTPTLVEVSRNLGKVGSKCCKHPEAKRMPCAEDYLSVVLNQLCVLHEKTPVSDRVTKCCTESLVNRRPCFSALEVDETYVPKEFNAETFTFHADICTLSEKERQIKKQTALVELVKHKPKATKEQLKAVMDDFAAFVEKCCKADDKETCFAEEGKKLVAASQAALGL

binding: binds
B1: BEV Peptide 1 (bevacizumab variable peptide 1) (peptide)
peptide: DTAVYYCAKYPHYYGSSHWYF

Source: patent US20210267930A1, “MODIFIED ANTIBODY-ALBUMIN NANOPARTICLE COMPLEXES FOR CANCER TREATMENT” (Mayo Foundation for Medical Education and Research, priority 2016, published 2021)
